From PMC8797263
These are yes or no findings as the source states them, for the method shown. Binding seen in cells or lysates may run through a third protein. Binding can be weak; no strength is given. Where a sequence is shown, tags or fusion partners need not be part of it.

Target: FLAG-OCLN-ΔN
Test: co-IP; 293T cells co-expressing FLAG-OCLN (or OCLN-ΔN / OCLN-ΔC) and HA-PLIN2/BTN1a1/XOR; lysis in 20 mM HEPES, 150 mM NaCl, 1% NP40; FLAG magnetic beads overnight at 4°C, 4 washes; western blot with anti-HA

binding: binds
B1: HA-BTN1a1 (protein, UniProt Q62556 27-524)
chain: AAPFDVTAPQEPVLALVGSDAELTCGFSPNASSEYMELLWFRQTRSTAVLLYRDGQEQEGQQMTEYRGRATLATAGLLDGRATLLIRDVRVSDQGEYRCLFKDNDDFEEAAVYLKVAAVGSDPQISMTVQENGEMELECTSSGWYPEPQVQWRTGNREMLPSTSESKKHNEEGLFTVAVSMMIRDSSIKNMSCCIQNILLGQGKEVEISLPAPFVPRLTPWIVAVAIILLALGFLTIGSIFFTWKLYKERSSLRKKEFGSKERLLEELRCKKTVLHEVDVTLDPDTAHPHLFLYEDSKSVRLEDSRQILPDRPERFDSWPCVLGRETFTSGRHYWEVEVGDRTDWAIGVCRENVVKKGFDPMTPDNGFWAVELYGNGYWALTPLRTSLRLAGPPRRVGVFLDYDAGDISFYNMSNGSLIYTFPSISFSGPLRPFFCLWSCGKKPLTICSTANGPEKVTVIANVQDDIPLSPLGEGCTSGDKDTLHSKLIPFSPSQAAP
